Library screen at single concentrations

By UniProt entry, the sequences of proteins in these tests, tags left out. Residues count along the entry.
UniProt Q4DA54, 1-478: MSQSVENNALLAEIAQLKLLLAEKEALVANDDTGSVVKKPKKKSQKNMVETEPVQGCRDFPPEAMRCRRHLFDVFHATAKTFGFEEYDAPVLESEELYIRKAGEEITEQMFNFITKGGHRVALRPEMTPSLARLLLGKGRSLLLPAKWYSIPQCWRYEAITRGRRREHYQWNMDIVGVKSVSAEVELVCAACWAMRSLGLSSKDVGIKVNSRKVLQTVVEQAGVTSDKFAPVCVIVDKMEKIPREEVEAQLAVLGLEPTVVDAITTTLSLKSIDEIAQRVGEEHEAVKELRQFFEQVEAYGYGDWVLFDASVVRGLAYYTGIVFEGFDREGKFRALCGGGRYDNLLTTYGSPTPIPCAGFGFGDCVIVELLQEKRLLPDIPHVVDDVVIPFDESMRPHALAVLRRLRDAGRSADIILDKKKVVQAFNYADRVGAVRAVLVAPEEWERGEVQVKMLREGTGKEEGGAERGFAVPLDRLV
UniProt P9WPC5, whole entry: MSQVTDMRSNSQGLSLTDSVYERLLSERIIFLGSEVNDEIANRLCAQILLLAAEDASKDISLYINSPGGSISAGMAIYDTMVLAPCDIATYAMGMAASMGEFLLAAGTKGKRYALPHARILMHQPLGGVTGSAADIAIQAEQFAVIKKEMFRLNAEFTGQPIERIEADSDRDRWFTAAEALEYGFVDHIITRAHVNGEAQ
UniProt P9WPC3, whole entry partner: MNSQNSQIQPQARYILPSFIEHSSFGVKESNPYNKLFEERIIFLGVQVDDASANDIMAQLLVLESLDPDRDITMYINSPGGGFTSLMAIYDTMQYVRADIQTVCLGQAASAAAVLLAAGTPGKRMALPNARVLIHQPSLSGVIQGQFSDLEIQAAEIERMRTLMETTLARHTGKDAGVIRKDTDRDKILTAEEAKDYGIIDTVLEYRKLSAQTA
UniProt Q8IDJ8, 1-583: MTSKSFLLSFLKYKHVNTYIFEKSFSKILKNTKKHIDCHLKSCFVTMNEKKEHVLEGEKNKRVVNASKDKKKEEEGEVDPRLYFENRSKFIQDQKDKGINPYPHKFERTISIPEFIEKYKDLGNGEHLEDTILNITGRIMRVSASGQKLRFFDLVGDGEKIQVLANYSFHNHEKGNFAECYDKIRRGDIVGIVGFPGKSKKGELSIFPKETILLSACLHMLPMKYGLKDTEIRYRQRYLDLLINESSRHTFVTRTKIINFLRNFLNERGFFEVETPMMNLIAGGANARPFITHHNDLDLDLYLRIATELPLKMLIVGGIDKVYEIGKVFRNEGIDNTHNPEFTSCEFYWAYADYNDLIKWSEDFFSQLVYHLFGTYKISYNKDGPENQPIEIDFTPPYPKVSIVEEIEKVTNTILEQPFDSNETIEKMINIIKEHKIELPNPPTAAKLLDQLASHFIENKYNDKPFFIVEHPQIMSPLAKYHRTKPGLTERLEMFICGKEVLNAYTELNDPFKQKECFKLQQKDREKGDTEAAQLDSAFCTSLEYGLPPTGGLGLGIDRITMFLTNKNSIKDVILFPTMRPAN

Values are the deposited “Percent Effect”, in %.
The controls that fix the scale are not given in the record; negative values are as filed.
The compounds are a random part of those screened.
A dash means the value is not listed here; it may have been measured.

Leishmania in macrophages: 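Cell assay of Leishmania donovani living inside macrophages; the read-out is not stated. Compounds at 30 µM. The record gives no direction; compounds that gave an IC50 in retests scored well above the rest, so higher reads as stronger inhibition. Size under these conditions: about 69,000 compounds, about 1,000 of them at 50% or above in at least one test.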
TcHisRS: 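Histidine-tRNA ligase, Trypanosoma cruzi CL Brener (UniProt Q4DA54). Enzyme assay of histidyl-tRNA synthetase; the read-out is not stated. Tested at 30 µM. The record gives no direction; compounds that gave an IC50 in retests scored well above the rest, so higher reads as stronger inhibition. Size under these conditions: about 69,000 compounds, about 31 of them at 50% or above in at least one test.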
ClpP1P2: 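Protease assay of ClpP1P2, read by the AMC dye that it sets free. Target: ClpP1P2, Mycobacterium tuberculosis (UniProt P9WPC5 and UniProt P9WPC3). Tested at 50 µM. Direction is inferred from only a few compounds that gave an IC50; most scored high, so higher reads as stronger inhibition. Most other retested compounds had strongly negative values. Of about 69,000 compounds tested this way, about 10 (0.015%) reached 50% or more in at least one test.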
Toxoplasma: 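Assay of Toxoplasma gondii numbers, read through their beta-galactosidase reporter with a colour substrate. Tested at 10 µM. Higher reads as fewer parasites (inferred from which compounds were picked for retests). About 67,000 compounds were tested under these conditions; 0.38% (about 260) showed 50% or more at least once.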
PfKRS1: 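Lysine-tRNA ligase, Plasmodium falciparum 3D7 (UniProt Q8IDJ8). Enzyme assay of the cytosolic lysyl-tRNA synthetase in 384-well plates, read by luminescence. Concentration: 30 µM. Direction is inferred from only a few compounds that gave an IC50; most scored high, so higher reads as stronger inhibition. About 69,000 compounds were tested under these conditions; 0.071% (about 49) showed 50% or more at least once.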

structure	Leishmania in macrophages	TcHisRS	ClpP1P2	Toxoplasma	PfKRS1
O=C(NC1COC2(CCN(CC3CCC3)CC2)C1)c1ccccn1 (stereo unspecified)	-	4.301%	-11.44%	-	-0.7281%
COc1ccccc1Nc1nc2c(C)nn(C)c2c(=O)n1C	-67.83%	0.8772%	9.187%	9.981%	-5.099%
Cc1cc(NCCc2c[nH]cn2)nc(-c2cccnc2)n1	25.1%	10.05%	8.244%	-6.791%	2.618%
CCc1nc(CCNC(=O)NC2CC(=O)N(C(C)(C)C)C2)cs1 (stereo unspecified)	26.05%	-38.3%	14.73%	-2.19%	8.323%
O=C(O)C(F)(F)F.O=C(c1ccnnc1)N1CC[C@]2(C[C@H](Oc3ncccc3F)CO2)C1	19.35%	-	-	13.31%	-
Cc1cc2ccccc2n1CC(=O)NCC(=O)N1CCOCC1	-1.684%	6.736%	-9.651%	4.241%	6.285%
Cc1cnn(CC2CCCN2Cc2ncc(-c3ccc(F)cc3)o2)c1 (stereo unspecified)	-4.44%	6.916%	-23.84%	2.223%	-1.378%
Cc1noc([C@]23COC[C@H]2CN(S(C)(=O)=O)C3)n1	-	2.299%	3.69%	-	6.457%
CN(C)C(=O)CN1CCO[C@H]2CN(c3ccccn3)C[C@H]21	-	4.598%	-12.79%	-	2.526%
COCc1nc(CN2CCC3(CCCO3)CCC2=O)no1 (stereo unspecified)	3.372%	6.224%	-17.09%	2.974%	3.315%
c1cc(CN2CCC3(CC2)COC(COCC2CC2)C3)ccn1 (stereo unspecified)	-	6.098%	-12.08%	-	4.226%
Cc1nc(C)c(CN(C)C2CCN(C(=O)OC(C)(C)C)CC2)s1	9.875%	4.762%	-8.197%	-0.1588%	3.947%
CC(=O)N1CC[C@H]2CC(=O)N(C3CC3)CC[C@H]2C1	-	5.941%	-13.06%	-	3.486%
C=Cn1ncc(CN2C[C@@H]3CCCN3C[C@@H]2CCSC)c1C	-	0%	-6.605%	-	2.039%
O=C(c1ccno1)N1CC[C@@H]2O[C@@H](COCCN3CCCC3)CC[C@@H]21	-	-2.762%	-1.681%	-	-2.969%
CN(C)c1ncc2c(n1)CN(C1CC(C)(C)NC(C)(C)C1)C2=O	-11.54%	3.478%	-2.885%	-0.4714%	4.825%
CS(=O)(=O)Cc1ccc(CNC(=O)N2CCC(C(N)=O)C2)cc1 (stereo unspecified)	-10.9%	5.714%	-10.39%	11.93%	-0.8024%
CCN(C(=O)c1ccc2c(c1)OCO2)C1CC(=O)NC1=O (stereo unspecified)	-8.56%	10.5%	-2.959%	-5.09%	5.056%
CC(C)(C)NC(=O)C1CCCCN1Cc1nccn1CC(F)(F)F (stereo unspecified)	14.1%	8.642%	-12.46%	18.06%	4.088%
COCC(=O)N[C@H]1C[C@@H](C(=O)NCCc2cccc(Cl)c2)N(C)C1	27.34%	11.06%	-3.995%	6.348%	5.392%
COCCN1CC[C@]2(CN(Cc3cccnc3)C[C@H]2C)C1=O	-	3.365%	-1.598%	-	5.774%
CCn1cc2c(n1)C(COCC1CC1)CN(C(=O)c1cc(C)on1)C2 (stereo unspecified)	12.69%	-1.266%	-3.557%	-5.016%	15.38%
CC(C)N(CC(N)=O)Cc1csc(-c2ncccn2)n1	6.732%	1.571%	2.844%	2.692%	2.797%
Cc1c(C2=NS(=O)(=O)N(C)C(C(=O)Nc3ccc(Br)cc3)=C2)cnn1C	-6.393%	-0.7692%	21.33%	-	3.705%
CCOC(=O)[C@H]1[C@@H](O)C(=O)N(C)C12CCN(C(=O)CC(C)C)CC2	-2.765%	3.468%	-2.943%	17.86%	2.555%
Cc1cccc(NC(=O)c2nn(C3CCS(=O)(=O)C3)c3c2CCCC3)n1 (stereo unspecified)	-19.37%	3.727%	-4.625%	-18.57%	2.455%
C=C(Cl)CN1CCC(C(=O)c2cc(F)ccc2F)CC1	6.787%	-0.3802%	1.849%	-16.65%	-1.564%
CN(Cc1nccn1C)CC1CCOc2ccccc2C1 (stereo unspecified)	-2.543%	-3.59%	4.869%	0.8654%	0.8156%
CCC(=O)N1CC[C@H]2C(=O)N(Cc3ccc(OC)cc3)CCO[C@H]2C1	-	-4.516%	4.276%	-	4.547%
CN1CCN(c2ncc3c(=O)n(Cc4ccco4)ccc3n2)CC1	25.28%	0%	-2.885%	8.404%	-0.1638%
Cc1cc(C)n(C2CCN(Cc3nc4ccccc4n3C)CC2)n1	3.512%	2.632%	-6.466%	17.51%	0.2746%
CC(=O)N1CCO[C@@H]2CN(S(=O)(=O)c3ccccc3F)C[C@@H]2C1	-	2.674%	2.52%	-	5.371%
CCc1nc(C)c([C@H]2CN(C)C[C@@H]2C(=O)Nc2ccc(OC)cc2)[nH]1	18.36%	5%	-6.926%	-0.9233%	5.897%
CCC(=O)c1ccc(OCC(=O)NCC2CC(CC)=NO2)cc1 (stereo unspecified)	24.33%	-1.676%	-1.441%	-8.996%	0.5891%

For reference, 4 entries once more:

{"structure": "CCC(=O)N1CC[C@H]2C(=O)N(Cc3ccc(OC)cc3)CCO[C@H]2C1", "TcHisRS": -4.516, "ClpP1P2": 4.276, "PfKRS1": 4.547}
{"structure": "CCc1nc(CCNC(=O)NC2CC(=O)N(C(C)(C)C)C2)cs1", "stereo": "stereo unspecified", "Leishmania in macrophages": 26.05, "TcHisRS": -38.3, "ClpP1P2": 14.73, "Toxoplasma": -2.19, "PfKRS1": 8.323}
{"structure": "Cc1c(C2=NS(=O)(=O)N(C)C(C(=O)Nc3ccc(Br)cc3)=C2)cnn1C", "Leishmania in macrophages": -6.393, "TcHisRS": -0.7692, "ClpP1P2": 21.33, "PfKRS1": 3.705}
{"structure": "Cc1cc(NCCc2c[nH]cn2)nc(-c2cccnc2)n1", "Leishmania in macrophages": 25.1, "TcHisRS": 10.05, "ClpP1P2": 8.244, "Toxoplasma": -6.791, "PfKRS1": 2.618}

Data taken from ChEMBL document CHEMBL3988442, “University of Dundee, Small-Polar-MMV Screening Library” (2021).